## Library screen at single concentrations

Protein sequences, listed by entry. Tags and fused reporters are not part of them. Residues count along the entry.
UniProt P9WNZ1, whole entry: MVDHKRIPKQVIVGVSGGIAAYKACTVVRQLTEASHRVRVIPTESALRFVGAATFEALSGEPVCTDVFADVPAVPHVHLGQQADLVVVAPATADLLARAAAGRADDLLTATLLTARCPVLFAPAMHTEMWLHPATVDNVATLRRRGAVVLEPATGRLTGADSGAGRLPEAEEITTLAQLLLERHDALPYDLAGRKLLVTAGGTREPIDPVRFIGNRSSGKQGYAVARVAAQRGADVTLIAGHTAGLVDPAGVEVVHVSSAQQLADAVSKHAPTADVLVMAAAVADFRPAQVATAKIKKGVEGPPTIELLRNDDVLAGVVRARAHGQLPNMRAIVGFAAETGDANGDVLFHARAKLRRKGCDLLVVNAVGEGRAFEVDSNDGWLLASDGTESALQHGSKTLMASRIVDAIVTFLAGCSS
UniProt P9WFT3, whole entry: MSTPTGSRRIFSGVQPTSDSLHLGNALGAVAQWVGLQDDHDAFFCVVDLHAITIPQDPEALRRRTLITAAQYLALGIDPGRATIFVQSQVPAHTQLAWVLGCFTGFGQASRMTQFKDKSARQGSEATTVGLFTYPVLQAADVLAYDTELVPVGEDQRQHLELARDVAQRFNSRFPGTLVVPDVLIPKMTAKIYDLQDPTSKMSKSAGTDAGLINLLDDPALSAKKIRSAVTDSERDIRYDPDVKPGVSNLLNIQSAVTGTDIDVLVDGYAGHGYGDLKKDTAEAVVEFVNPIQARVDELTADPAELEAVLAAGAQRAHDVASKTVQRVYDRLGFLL
UniProt P9WPC5, whole entry: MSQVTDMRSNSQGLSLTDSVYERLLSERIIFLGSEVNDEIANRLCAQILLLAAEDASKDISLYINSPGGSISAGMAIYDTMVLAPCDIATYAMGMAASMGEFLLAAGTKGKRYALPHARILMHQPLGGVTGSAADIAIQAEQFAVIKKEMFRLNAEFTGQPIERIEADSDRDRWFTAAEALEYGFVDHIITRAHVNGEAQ
UniProt P9WPC3, whole entry partner: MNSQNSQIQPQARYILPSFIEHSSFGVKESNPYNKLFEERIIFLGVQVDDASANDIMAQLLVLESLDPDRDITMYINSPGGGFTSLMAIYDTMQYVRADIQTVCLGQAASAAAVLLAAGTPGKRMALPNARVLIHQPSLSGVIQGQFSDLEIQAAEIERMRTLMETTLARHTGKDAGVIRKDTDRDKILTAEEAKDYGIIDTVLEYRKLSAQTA
UniProt A4I591, 1-473: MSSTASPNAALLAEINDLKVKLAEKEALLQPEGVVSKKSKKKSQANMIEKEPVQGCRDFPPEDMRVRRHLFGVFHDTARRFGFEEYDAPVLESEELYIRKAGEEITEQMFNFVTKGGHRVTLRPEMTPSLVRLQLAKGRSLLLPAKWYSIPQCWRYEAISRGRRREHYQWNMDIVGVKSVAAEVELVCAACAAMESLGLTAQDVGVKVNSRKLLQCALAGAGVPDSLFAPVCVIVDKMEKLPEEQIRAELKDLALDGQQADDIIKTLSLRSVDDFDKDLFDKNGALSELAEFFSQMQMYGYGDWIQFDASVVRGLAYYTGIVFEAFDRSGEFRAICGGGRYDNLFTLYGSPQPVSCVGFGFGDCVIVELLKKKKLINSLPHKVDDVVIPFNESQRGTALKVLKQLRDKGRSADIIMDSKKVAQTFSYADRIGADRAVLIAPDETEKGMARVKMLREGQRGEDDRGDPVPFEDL
UniProt Q4DA54, 1-478: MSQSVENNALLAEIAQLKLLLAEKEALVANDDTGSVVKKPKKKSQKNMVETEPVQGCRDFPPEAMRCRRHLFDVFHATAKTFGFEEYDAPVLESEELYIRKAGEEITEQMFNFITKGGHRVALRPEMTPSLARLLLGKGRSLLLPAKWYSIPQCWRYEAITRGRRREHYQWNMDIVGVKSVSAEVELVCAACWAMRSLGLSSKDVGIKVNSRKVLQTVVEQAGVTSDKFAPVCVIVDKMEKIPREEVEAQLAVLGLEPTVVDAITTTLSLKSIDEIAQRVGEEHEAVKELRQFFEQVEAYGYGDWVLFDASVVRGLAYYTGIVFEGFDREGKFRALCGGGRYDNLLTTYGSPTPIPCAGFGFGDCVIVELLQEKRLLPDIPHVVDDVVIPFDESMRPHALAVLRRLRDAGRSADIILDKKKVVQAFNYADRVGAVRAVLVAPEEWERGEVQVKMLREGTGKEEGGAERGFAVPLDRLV

Values are the deposited “Percent Effect”, in %. The record does not define 0% and 100%; most values in the screen are far below 50% and negative numbers occur (in some assays of this library far below -100). Compounds were drawn at random from those tested, without regard to their results. Two or more numbers in one place are separate tests of the same structure; such repeats can differ widely.

CoaBC: 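Coenzyme A biosynthesis protein CoaBC, Mycobacterium tuberculosis (UniProt P9WNZ1). Enzyme assay of CoaBC with a phosphate dye (Biomol Green) read at 650 nm. Tested at 30 µM. Higher reads as stronger inhibition, judged from the few compounds that gave an IC50. Most strong results did not repeat in a second test. Size under these conditions: about 67,000 compounds, about 40 of them at 50% or above in at least one test.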
MtTrpRS: 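Tryptophan-tRNA ligase, Mycobacterium tuberculosis (UniProt P9WFT3). Enzyme assay of tryptophanyl-tRNA synthetase; the read-out is not stated. Compounds at 10 µM. Direction is not recorded; retested compounds ran higher, which suggests that high means inhibition. Size under these conditions: about 65,000 compounds, about 64 of them at 50% or above in at least one test.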
ClpP1P2: 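ClpP1P2, Mycobacterium tuberculosis (UniProt P9WPC5 and UniProt P9WPC3). Protease assay of ClpP1P2, read by the AMC dye that it sets free. Compounds at 50 µM. Direction is inferred from only a few compounds that gave an IC50; most scored high, so higher reads as stronger inhibition. Most other retested compounds had strongly negative values. Size under these conditions: about 69,000 compounds, about 10 of them at 50% or above in at least one test.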
LiHisRS: 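Enzyme assay of histidyl-tRNA synthetase; the read-out is not stated. Target: Histidine-tRNA ligase, Leishmania infantum (UniProt A4I591). Tested at 30 µM. Higher reads as stronger inhibition (inferred: compounds with an IC50 in retests scored well above the rest). The assay is labelled LdHisRS but filed under L. infantum. Size under these conditions: about 69,000 compounds, about 410 of them at 50% or above in at least one test.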
TcHisRS: 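Histidine-tRNA ligase, Trypanosoma cruzi CL Brener (UniProt Q4DA54). Enzyme assay of histidyl-tRNA synthetase; the read-out is not stated. Compounds at 30 µM. The record gives no direction; compounds that gave an IC50 in retests scored well above the rest, so higher reads as stronger inhibition. Of about 69,000 compounds tested this way, about 31 (0.045%) reached 50% or more in at least one test.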

{"structure": "CN(C)CC1(O)CCN(C(=O)c2cnc(-c3cccnc3)nc2)C1", "stereo": "stereo not shown", "CoaBC": -1.006, "MtTrpRS": 0.2793, "ClpP1P2": 1.092, "LiHisRS": 12.82, "TcHisRS": 6.18}
{"structure": "CCN(Cc1nccn1C)C(=O)c1ccc(NCCc2c[nH]cn2)nc1", "CoaBC": 5.342, "MtTrpRS": -6.946, "ClpP1P2": -14.18, "LiHisRS": 12.5, "TcHisRS": -5.797}
{"structure": "CNS(=O)(=O)c1ccc(CNC(=O)C2CCCO2)cc1", "stereo": "stereo not shown", "CoaBC": -2.724, "MtTrpRS": -0.000009, "ClpP1P2": 15.38, "LiHisRS": 15.32, "TcHisRS": 5}
{"structure": "Cc1cnc(CNC(=O)[C@@H]2CC[C@@H]3[C@@H](CCN3Cc3ccco3)O2)cn1", "CoaBC": 4.731, "MtTrpRS": 2.008, "ClpP1P2": -0.4642, "LiHisRS": 26.03, "TcHisRS": 3.96}
{"structure": "OCC1CCCN1c1cc(NCc2cccs2)ncn1", "stereo": "stereo not shown", "CoaBC": -9.651, "MtTrpRS": 18.23, "ClpP1P2": -1.795, "LiHisRS": 20.51, "TcHisRS": 9.972}
{"structure": "Cc1nc(-c2ccco2)ccc1C(=O)NCC(=O)N1CCCCC1", "CoaBC": 2.945, "MtTrpRS": 1.285, "ClpP1P2": -11.91, "LiHisRS": 12.35, "TcHisRS": 0.6135}
{"structure": "COc1cccc(CNc2cc(C)nc(-c3ccncc3)n2)c1OC", "CoaBC": "12.7 and 20.29", "MtTrpRS": 0.5961, "ClpP1P2": 8.407, "LiHisRS": 52.05, "TcHisRS": 26.23}
{"structure": "CC(C)Nc1nc(-c2ccccc2)nc2c1CCN(C(=O)C1CC1)CC2", "CoaBC": 0.7407, "ClpP1P2": 5.943, "LiHisRS": 10, "TcHisRS": 5.291}
{"structure": "N[C@H]1CC[C@@H](n2cc(C(=O)NC3CCc4ccccc4C3)nn2)CC1", "stereo": "stereo partly shown", "CoaBC": 6.1, "MtTrpRS": -1.098, "ClpP1P2": -8.823, "LiHisRS": 9.836, "TcHisRS": 2.146}
{"structure": "Cc1nc(CC(=O)N2CCCC(N(C)Cc3ccccc3)C2)cs1", "stereo": "stereo not shown", "CoaBC": 0.9709, "MtTrpRS": -0.4542, "ClpP1P2": 6.11, "LiHisRS": 3.529, "TcHisRS": 5.025}
{"structure": "Cc1nc(COC[C@@H]2CCC[C@@]23CN(C)CCO3)cs1", "CoaBC": 1.014, "MtTrpRS": -1.146, "ClpP1P2": 5.983, "LiHisRS": 13.76, "TcHisRS": 7.563}
{"structure": "Cn1cc(CCC(=O)NCc2ccccc2OC(C)(C)C)cn1", "CoaBC": 1.151, "MtTrpRS": -1.715, "ClpP1P2": -15.46, "LiHisRS": 6.25, "TcHisRS": 1.042}
{"structure": "COC(=O)CSCc1noc(-c2ccc(C)cc2)n1", "CoaBC": 4.049, "MtTrpRS": 0.08223, "ClpP1P2": 2.539, "LiHisRS": 17.65, "TcHisRS": 9.877}
{"structure": "O=C(CNc1cc(F)ccc1OCC1CCCO1)N1CCOCC1", "stereo": "stereo not shown", "CoaBC": -12.9, "MtTrpRS": -0.7252, "ClpP1P2": -7.224, "LiHisRS": 13.46, "TcHisRS": 0.5714}
{"structure": "Cc1ncsc1C(=O)NCc1cccs1", "CoaBC": 10.79, "MtTrpRS": -0.4859, "ClpP1P2": 12.47, "LiHisRS": 18.46, "TcHisRS": -3.448}
{"structure": "O=C(NCCNS(=O)(=O)c1ccc2c(c1)CCC2)c1ccccc1", "CoaBC": 1.623, "MtTrpRS": -1.251, "ClpP1P2": 4.433, "LiHisRS": 9.917, "TcHisRS": 4.082}
{"structure": "NC(=O)C1CCN(Cn2nc(-c3ccc(F)cc3)oc2=O)C1", "stereo": "stereo not shown", "CoaBC": 5.968, "MtTrpRS": -4.009, "ClpP1P2": -1.498, "LiHisRS": 22.58, "TcHisRS": 11.31}
{"structure": "CCC1=N[C@@]2(CC[C@@H]3CN(S(=O)(=O)CC)C[C@@H]32)C(=O)N1CC", "CoaBC": -1.895, "MtTrpRS": -5.339, "ClpP1P2": -9.65, "LiHisRS": 16.81, "TcHisRS": 6.452}
{"structure": "COCCNC(=O)[C@H]1CN2CCC1C[C@@H]2Cn1cc(C(C)(C)C)nn1", "stereo": "stereo partly shown", "CoaBC": 9.051, "MtTrpRS": 7.663, "ClpP1P2": -5.27, "LiHisRS": 12.16, "TcHisRS": 1.087}
{"structure": "CN1CCN(Cc2cn3c(n2)CN(Cc2ccc(F)cc2)CC3)CC1", "CoaBC": 4.332, "ClpP1P2": 2.19, "LiHisRS": 13.86, "TcHisRS": 0.5025}
{"structure": "O=C(Cc1ccccc1Cl)NCCN1CCC(c2cccs2)CC1", "CoaBC": 4.934, "MtTrpRS": 1.174, "ClpP1P2": 7.858, "LiHisRS": -15.73, "TcHisRS": 8.543}
{"structure": "Cc1cccc(-c2nccn2-c2cccc(CC(=O)O)c2)n1", "CoaBC": -4.218, "MtTrpRS": 0.5711, "ClpP1P2": -0.9952, "LiHisRS": 14.89, "TcHisRS": 8.671}

Measurements from “University of Dundee, Small-Polar-MMV Screening Library” (2021), ChEMBL document CHEMBL3988442.